Laboratory results taken from patent US7135462B2, “Hepatitis C virus inhibitors” (priority 2003, dated 2006).

Target: T1, HCV NS3/4A protease complex (BMS strain) (UniProt P27958, C1454S/C1711G, species not given)
T1 construct: for H77 and J4L6S; fused on or other part: Three-lysine solubilising tail at the C-terminus of NS4A
Test: Recombinant HCV NS3/4A protease complex FRET peptide assay
Type: biochemical, Hepatitis C virus (HCV), genotype 1a
Conditions: NS3/4A BMS strain; activity range class
Excerpt: Recombinant HCV NS3/4A Protease Complex FRET Peptide Assay
Serum from an HCV-infected patient was obtained from Dr. T. Wright, San Francisco Hospital. An engineered full-length cDNA (compliment deoxyribonucleic acid) template of the HCV genome (BMS strain) was constructed from DNA fragments obtained by reverse transcription-PCR (RT-PCR) of serum RNA (ribonucleic acid) and using primers selected on the basis of homology between other genotype 1a strains.
The H77 and J4L6S strains were used for production of recombinant NS3/4A protease complexes. […] Briefly, a three-lysine solubilizing tail was added at the 3′-end of the NS4A coding region. […] Briefly, the NS3/4A protease complex expression was induced with 0.5 millimolar (mM) Isopropyl β-D-1-thiogalactopyranoside (IPTG) for 22 hours (h) at 20° C. […] The cells were resuspended in lysis buffer (10 mL/g) consisting of 25 mM N-(2-Hydroxyethyl)piperazine-N′-(2-Ethane Sulfonic acid) (HEPES), pH 7.5, 20% glycerol, 500 mM Sodium Chloride (NaCl), 0.5% Triton X-100, 1 microgram/milliliter (“μg/mL”) lysozyme, 5 mM Magnesium Chloride (MgCl2), 1 μg/ml DnaseI, 5 mM β-Mercaptoethanol (βME), Protease inhibitor—Ethylenediamine Tetraacetic acid (EDTA) free (Roche), homogenized and incubated for 20 minutes (min) at 4° C. The homogenate was sonicated and clarified by ultra-centrifugation at 235000 g for 1 h at 4° C. […]

`C=C[C@@H]1C[C@]1(NC(=O)[C@@H]1C[C@@H](Oc2cc(-c3ccccc3)nc3nc(C)ccc23)CN1C(=O)[C@@H](NC(=O)OC(C)(C)C)C(C)(C)C)C(=O)NS(=O)(=O)C1(Cc2ccccc2)CC1` [Cmpd 800] gave an IC50 of less than 100 nM.
